Data as given in patent US20160311880A1.
These are yes or no findings as the source states them, for the method shown. Binding calls can cover weak binding; strength is not graded here.

How the values were obtained:
[1] = biological target: zebrafish aplnrb (zebrafish); assay: AP-ELA cell-surface binding to transfected HEK293T cells
[2] = biological target: zebrafish aplnrb (zebrafish); assay: AP-ELA cell-surface binding to transfected 293T cells (FIG. 7G)
[3] = biological target: zebrafish aplnrb (zebrafish); assay: AP-ELA cell-surface binding to transfected 293T cells (FIG. 7H)

Measured: binding

B1: recombinant ELA conjugated to Alkaline-Phosphatase (AP-ELA) (peptide, not shown: large carriers)
chain: QRPVNLTMRRKLRKHNCLQRRCMPLHSRVPFP
binds: all assays above
